Data source: PubChem BioAssay AID652243 (Drosophila RNAi Screening Center, 2013)
The screen tested about 24,000 reagents; shown is a random part of those that have a named target and a result. Of all reagents, 246 (1%) are marked active. 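Plates not normalised; calls are printed but the firefly/Renilla ratio behind them is not deposited; fold cut for lowering reported inconsistently.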 Raw values vary from plate to plate and are shown uncorrected. A number with no mark means an inactive call. The numbers tell different reagents against one gene apart. The record does not give: the amount of reagent.

Purpose: 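Knock-downs that decrease or increase androgen receptor reporter signal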 (primary screen)
Cell system: Drosophila S2R+ cells
Knock-down reagent: long dsRNA against Drosophila genes
Duration: 72 h (48 h, then 24 h hormone)
Challenge: synthetic androgen R1881 at 10 nM for 24 h
Detection: 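Per-well raw luminescence of the androgen-driven firefly reporter and of the Renilla control, two replicates each, without normalisation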
Reading the numbers: firefly reporter light: higher = more light from androgen-responsive reporter; Renilla control light: higher = more constitutive control signal (cell number, transfection)
Active means: 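Across duplicate plates, a knock-down whose log firefly/Renilla ratio shifted a set fold down or up from the GFP/LacZ control mean was a hit; the downward cut appears as both 1.5 and 3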
Meaning of the calls: active = hit: reporter lowered or raised; inactive = no hit

| gene | dsRNA no. | firefly reporter light, replicate 1 | firefly reporter light, replicate 2 | Renilla control light, replicate 1 | Renilla control light, replicate 2 |
| --- | --- | --- | --- | --- | --- |
| CG34125 | 1 | 1.08e5 | 84958 | 4.36e5 | 3.65e5 |
| CG17118 | 1 | 1.69e5 | 1.45e5 | 9.33e5 | 1.03e6 |
| lectin-29Ca | 1 | 2.40e5 | 2.09e5 | 2.31e6 | 1.36e6 |
| D1 | 1 | 35951 | 65657 | 4.07e5 | 6.16e5 |
| CG14397 | 1 | 1.55e5 | 2.15e5 | 1.65e6 | 1.79e6 |
| CG5262 | 1 | 14383 | 11043 | 1.19e5 | 1.58e5 |
| coil | 1 | 6.95e5 | 7.57e5 | 1.96e6 | 2.00e6 |
| coil | 2 | 4.78e5 | 3.23e5 | 6.69e5 | 5.83e5 |
| Gr57a | 1 | 87690 | 1.08e5 | 1.30e6 | 1.31e6 |
| Ir75c | 1 | 2.63e5 | 1.54e5 | 2.24e6 | 1.68e6 |
| vih | 1 | 2.18e5 | 1.85e5 | 1.53e6 | 1.38e6 |
| vih | 2 | 2.41e5 | 2.23e5 | 8.61e5 | 3.99e5 |
| CG4622 | 1 | 6.20e5 | 4.43e5 | 1.55e6 | 1.04e6 |
| LysS | 1 | 73607 | 45481 | 6.14e5 | 6.84e5 |
| LysS | 2 | 3.24e5 | 2.21e5 | 6.88e5 | 6.57e5 |
| CG8314 | 1 | 1.46e6 | 1.07e6 | 2.82e6 | 1.90e6 |
| Nipped-B | 1 | 76696 | 1.05e5 | 1.05e6 | 1.25e6 |
| Nipped-B | 2 | 8.70e5 | 3.47e5 | 1.62e6 | 9.48e5 |
| escl | 1 | 6.67e5 | 5.55e5 | 1.70e6 | 2.35e6 |
| escl | 2 | 2.55e5 | 3.09e5 | 6.46e5 | 6.34e5 |
| MFS12 | 1 | 7.96e5 | 3.73e5 | 1.98e6 | 1.06e6 |
| FoxP | 1 | 81168 | 1.29e5 | 1.77e6 | 1.75e6 |
| FoxP | 2 | 7.78e5 | 5.63e5 | 1.96e6 | 1.36e6 |
| FoxP | 3 | 1.36e6 | 7.57e5 | 1.20e6 | 1.20e6 |

Already shown: entries from further up.
| gene | dsRNA no. | firefly reporter light, replicate 1 | firefly reporter light, replicate 2 | Renilla control light, replicate 1 | Renilla control light, replicate 2 |
| --- | --- | --- | --- | --- | --- |
| Gr57a | 1 | 87690 | 1.08e5 | 1.30e6 | 1.31e6 |
| Ir75c | 1 | 2.63e5 | 1.54e5 | 2.24e6 | 1.68e6 |
